## Library screening results

Chains of the proteins cited; added tags and fusions are not shown.
UniProt E9BF75, entry or part of it: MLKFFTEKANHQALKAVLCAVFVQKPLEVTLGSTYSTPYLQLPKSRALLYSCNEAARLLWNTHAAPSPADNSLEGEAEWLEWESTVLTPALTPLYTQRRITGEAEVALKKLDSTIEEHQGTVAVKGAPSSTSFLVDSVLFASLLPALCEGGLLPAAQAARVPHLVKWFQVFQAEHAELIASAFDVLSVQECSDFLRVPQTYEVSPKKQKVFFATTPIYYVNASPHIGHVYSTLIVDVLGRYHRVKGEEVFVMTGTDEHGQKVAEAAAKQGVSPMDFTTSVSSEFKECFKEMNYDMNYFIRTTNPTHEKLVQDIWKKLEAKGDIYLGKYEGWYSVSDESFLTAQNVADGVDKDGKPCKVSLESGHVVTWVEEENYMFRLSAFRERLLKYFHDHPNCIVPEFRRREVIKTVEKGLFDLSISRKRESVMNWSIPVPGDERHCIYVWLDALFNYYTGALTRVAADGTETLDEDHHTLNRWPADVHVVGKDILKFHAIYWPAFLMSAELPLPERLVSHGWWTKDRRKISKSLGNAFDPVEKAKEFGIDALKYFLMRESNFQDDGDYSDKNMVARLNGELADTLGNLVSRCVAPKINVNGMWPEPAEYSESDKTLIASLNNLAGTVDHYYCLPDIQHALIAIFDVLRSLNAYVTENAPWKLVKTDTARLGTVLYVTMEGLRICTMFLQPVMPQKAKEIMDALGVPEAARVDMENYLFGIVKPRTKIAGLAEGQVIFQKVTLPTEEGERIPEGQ

Source: ChEMBL document CHEMBL3988442, “University of Dundee, Small-Polar-MMV Screening Library” (2021).

All values are in %.
The record does not define 0% and 100%; most values in the screen are far below 50% and negative numbers occur (in some assays of this library far below -100).
Compounds were drawn at random from those tested, without regard to their results.
A dash means the value is not listed here; it may have been measured.

LdMetRS: 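Methionyl-tRNA synthetase (putative), Leishmania donovani (UniProt E9BF75). Primary screen of methionyl-tRNA synthetase; the read-out is not stated. The test concentration is not given. The values are filed as inhibition. Of about 68,000 compounds tested this way, about 24 (0.035%) reached 50% or more in at least one test.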
Mtb heat-shock: 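Assay on Mycobacterium tuberculosis, filed only as a heat shock assay from Cornell; the read-out is not stated. The concentration is filed as 10 mM, unlikely as a test dose, so the dose is not known. Direction is inferred from retests: higher values go with stronger inhibition. Of about 69,000 compounds tested this way, about 930 (1.4%) reached 50% or more in at least one test.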

Compound | LdMetRS | Mtb heat-shock
CN1CCC2(CCN(CC3CCOCC3)CC2)C1=O.O=C(O)C(F)(F)F | - | -38.29
COc1ncnc(N(C)C)c1NC(=O)Cc1c[nH]c2ccc(F)cc12 | 2.256 | -43.62
O=C(c1ccc2c(c1)CCC2)N1CCn2ncnc2C1 | 11.01 | 24.41
Cc1noc(C2CCN(C(=O)CCNc3ncccn3)CC2)n1 | 8.589 | 13.08
CN(C)Cc1ccc(N2CCN(CCOCC(F)(F)F)CC2)nc1 | 6.866 | 0.6217
O=C(CN1C(=O)CCC1=O)N1CCC(S(=O)(=O)Cc2ccco2)CC1 | 5.797 | 13.65
Cc1ccc(N2CCN(C)c3ncccc3C2)nn1.O=C(O)C(F)(F)F | - | -44.78
Cc1nc(N)cc(C2CCN2CCC(N)=O)n1 (centres unmarked) | 19.37 | -2.03
CC(C)[C@@H]1CN(c2ccc(C(F)(F)F)cn2)C[C@H]1NS(C)(=O)=O | 4.532 | -172
O=C(O)C(F)(F)F.[H][C@@]12CN(Cc3scnc3C)C[C@H](C(=O)NCC3CC3)[C@]1([H])CCO2 | - | -4.533
CCC(N)C(=O)N1CCC(OCc2ccc(Cl)c(Cl)c2)CC1.Cl (centres unmarked) | - | 20.26
COCCC(=O)N1CCOCC(Cc2ccc3c(ccn3C)c2)C1 (centres unmarked) | 19.06 | -3.876
O=C(C[C@@H]1COC[C@H]2CN(Cc3ccncc3)C[C@@H]12)N1CCCC1 | 6.052 | -
CC(C)=CCC1(C(=O)O)CCCN(c2cc(N)ncn2)C1 (centres unmarked) | 5.208 | 12.52
Cc1nc(C)n(CC2CN(Cc3cccs3)Cc3nccn3C2)n1.O=C(O)C(F)(F)F (centres unmarked) | - | -14.71
CN1CCN(C2CCN(CCOc3cccc(Cl)c3)CC2)C1=O | 13.39 | -12.42
CC(C)CN1C[C@H]2C[C@H](C(=O)Nc3cccnc3)[C@@H](C1)O2 | 14.48 | -
Cc1cccc(-n2nc(CC(C)C)nc2CCn2ccc(=O)[nH]c2=O)c1 | 16.31 | 12.46
Cc1cn2c(n1)C(CNCc1cccc3c1OCO3)CCC2 (centres unmarked) | 3.495 | 16.27
CNC(=O)CCS(=O)(=O)Cc1cc(Cl)c2c(c1)OCCCO2 | 25.63 | -19.88
COCCN(Cc1c(C)nn(C)c1C)C(=O)C1COc2ccccc2C1 (centres unmarked) | 12.2 | -18.38
O=C(NCC(O)C1CC1)Nc1cnn(Cc2ccccc2)c1 (centres unmarked) | 19.62 | 11.35
O=C(CCc1ccccc1)C1CCCN(Cc2cncn2C2CC2)C1 (centres unmarked) | 7.843 | 5.776
[H][C@@]12CCN(Cc3nccs3)[C@]1([H])CC[C@H](C(=O)N1CCN(C)CC1)O2 | - | 4.932
CCOCc1ccccc1NC(=O)NCC(C)(O)c1ccsc1 (centres unmarked) | 12.1 | 5.013
O=C(O)C(F)(F)F.[H][C@@]12CCN(CC3CCOC3)[C@@]1([H])CC(=O)N2Cc1csc(C)n1 (some centres unmarked) | - | -4.028
Cc1nnsc1C(=O)N1CCN(CC2CC2)[C@@H]2CS(=O)(=O)C[C@@H]21 | 16.36 | -
Cc1cc(C(F)(F)F)nn1C(C)C(=O)NN1CCOCC1 (centres unmarked) | 21.55 | -2.35
O=C1CCCc2[nH]c(=O)c(C(=O)N3CCc4ccccc4C3)cc21 | 7.042 | -14.06
CN(Cc1cc(Br)cn1C)C(=O)Cc1cccc(O)c1 | 9.366 | -111.4
Cc1ccccc1SCC(=O)NC1CCC(O)CC1 (centres unmarked) | 8.659 | -3.991
CCC(=O)NCC(=O)Nc1ncc(I)cc1C | 4.735 | -22.79
CC(c1nc(C2CC2)no1)N1CCN(CCS(C)(=O)=O)CC1 (centres unmarked) | 12.88 | -10.59
Cc1nn(C)c(N(C)C)c1CNCc1cccnc1N(C)C | 11.4 | -17.29
CC(=O)c1cc(C(=O)NC2(c3ccc(Br)cc3)CC2)n(C)c1 | 14.54 | -15.81
CS(=O)(=O)NC(=O)CCc1cccc(OC2CCCC2)c1 | 11.42 | -8.629
Cc1cnn(C2CCCN(C(=O)c3cnc4ccccc4n3)C2)c1 (centres unmarked) | 14.38 | 0.7568
CCN1C(=O)CCC12CCN(C(=O)c1ccco1)CC2 | 10.08 | 9.598
CN(CC(N)=O)C(=O)c1cc(Cl)c(Cl)n1C | 5.426 | -23.5
[H][C@@]12CS(=O)(=O)C[C@]1([H])N(Cc1ccc(C)c(C)c1)CCN2CC(=O)N(C)C | - | -32.06
CN1CCC(Nc2cc(Cl)ccc2OCC(F)(F)F)C1=O (centres unmarked) | 17.04 | -25.75
c1ccc(CN2CCc3ncnc(-c4cncnc4)c3CC2)nc1 | 2.222 | -15.88
CC(NC(=O)c1ccnn1C)c1ccc(OCC2CC2)c(F)c1 (centres unmarked) | 4.178 | -3.534
C/C(=C\c1ccccc1)CN1CCCC(c2nnc3n2CCNCC3)C1.Cl (centres unmarked) | - | 9.811
CN1CC[C@]2(CN(CC3CC3)C[C@H]2c2ccccc2)C1=O | 1.648 | -11.84
COCCN1CC[C@]2(CN(C(=O)c3cccs3)C[C@H]2C)C1=O | 11.11 | -21.88
CCO[C@@H]1C[C@H]2CN(S(=O)(=O)c3cccs3)CCN2C1 | 13.14 | -
CCCNC(=O)c1cccc2ncccc12 | 10.08 | 25.86
O=C(Cc1ccsc1)N1CCC(n2nc(-c3ccco3)ccc2=O)CC1 | 14.04 | 50.48
Cc1csc(C2(NCC(O)COc3ccc(F)cc3)CCC2)n1 (centres unmarked) | -0.838 | -24.29
CN(C)C(=O)NC1COC2(CCN(Cc3ccccc3)CC2)C1.O=C(O)C(F)(F)F (centres unmarked) | - | -11
Cc1noc(COCC(=O)N2CCCC(c3nccs3)C2)n1 (centres unmarked) | 10.28 | 9.42
Cc1nn(C)c2c(NCc3ccccn3)nc(C(C)C)nc12 | 23.57 | -7.475
OCCn1nnnc1Cc1ccc(Br)cc1 | 23.06 | -4.52
Cn1ccc2c(C(=O)NCCCN3CCCC3)cccc21 | 18.12 | 20.16
Cc1ccsc1C(=O)N1CCCn2nnc(Cn3cccn3)c2C1 | 4.38 | -30.03

Repeated from the top, 6 entries:

Compound,LdMetRS,Mtb heat-shock
CN1CCC2(CCN(CC3CCOCC3)CC2)C1=O.O=C(O)C(F)(F)F,-,-38.29
COc1ncnc(N(C)C)c1NC(=O)Cc1c[nH]c2ccc(F)cc12,2.256,-43.62
O=C(c1ccc2c(c1)CCC2)N1CCn2ncnc2C1,11.01,24.41
Cc1noc(C2CCN(C(=O)CCNc3ncccn3)CC2)n1,8.589,13.08
CN(C)Cc1ccc(N2CCN(CCOCC(F)(F)F)CC2)nc1,6.866,0.6217
O=C(CN1C(=O)CCC1=O)N1CCC(S(=O)(=O)Cc2ccco2)CC1,5.797,13.65